# Out of some 330,000 compounds screened, about 7,700 (2.3%) were called active. Inconclusive results, whose numbers are uncertain, are shown with a selection of clear calls. Calls come from the whole dose curve; as a rule, active = well fitted inhibition curve with a large enough effect; inconclusive = small, poorly fitted or top-dose-only effect, or effect the other way; inactive = flat fitted curve, though single readings scatter. Where the call is inconclusive, the potency comes from a doubtful curve fit.
# Experiment: qHTS screen for small molecules that inhibit ELG1-dependent DNA repair in human embryonic kidney (HEK293T) cells expressing luciferase-tagged ELG1; note: nearly all actives have a fitted effect of over 55% in size
# Settings: HEK293T ELG1-luciferase reporter, luminescence, 16 h, DNA damage induced by 5-fluorouridine; activity change, negative = inhibition: at 46.1 µM (top of the series)
# Summary of the method: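 Cells (2,000 per well) received 5-fluorouridine plus test compound or DMSO and were incubated 16 hr at 37 °C, 5% CO2. Luciferase activity was read by luminescence 30 min after ONE-Glo addition; signal suppression marked inhibition of damage-induced ELG1 function.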
# % is set by controls: 0 for no effect and ±100 for the full control effect; potency is the fitted concentration of half-maximal effect.
Structure (SMILES),"activity change, negative = inhibition",Potency
O=C(c1ccco1)N1CCN(c2ncnc3scc(-c4ccc(F)cc4)c23)CC1,inactive: -18.1%,
Cc1cccc(N2CCN(C(=O)CSCc3c(C)noc3C)CC2)c1C,inactive: 9.86%,
COc1cc(OC)cc(-c2nnc(NC(=O)CCS(=O)(=O)c3ccc(C)cc3)o2)c1,inactive: -1.41%,
CC(C)(C)C(=O)Nc1ccc(-c2nc3ccccc3c(=O)o2)cc1,,"inconclusive: 23.1 µM [activator, partial curve]"
COc1cc(/C=C/C(=O)OCC(=O)N2CCCc3ccccc32)ccc1OCC#N,inactive: -23%,
CCOC(=O)CC1COCCN1C(=O)c1ccc2oc(Cc3ccccc3)nc2c1 (stereo not drawn),,"inconclusive: 20.6 µM [activator, partial curve]"
CCOC(=O)C(=O)NNc1cccc(C)c1C,inactive: 4.22%,
COc1cc(NC(=O)c2nccnc2C(=O)O)cc(OC)c1,,"inconclusive: 18.4 µM [activator, single point]"
CCOC(=O)C(=CNNc1cccc(Cl)c1)C(=O)OCC,inactive: 0%,
CCN(C(=O)CSc1nc2ccc(C)cc2[nH]1)C1CCS(=O)(=O)C1 (stereo not drawn),,"inconclusive: 6.51 µM [inhibitor, single point]"
CCn1c(=O)cc(SCC(=O)N2CCN(c3ccccc3OC)CC2)c2ccccc21,inactive: -25.5%,
Cc1cc(OCC(=O)NCC(C)C)cc(C)c1Br,inactive: 2.93%,
CCO[C@H]1OC(C(=O)NCc2nc3ccccc3[nH]2)=C[C@@H](c2csc3ccccc23)[C@@H]1CCCO,,"inconclusive: 32.6 µM [inhibitor, single point]"
COc1cccc(CNc2nc3ccc(C)cc3n3cnnc23)c1,,"inconclusive: 18.3 µM [activator, partial curve, poor fit]"
CC(=O)N1Cc2ccccc2CC1C(=O)OCC(=O)c1c(N)n(C)c(=O)n(C)c1=O (stereo not drawn),,"inconclusive: 6.51 µM [activator, single point]"
CCOC(=O)C1CCN(C(=O)C2CCN(S(=O)(=O)c3ccc4c(c3)CC(C)N4C(C)=O)CC2)CC1 (stereo not drawn),,active: 10.3 µM
S=C(NCc1ccccn1)Nc1ccccc1,,"inconclusive: 25.9 µM [activator, partial curve, poor fit]"
Cc1cnc(NC(=O)CSc2nnc(C)s2)s1,,"inconclusive: 23.1 µM [activator, partial curve, poor fit]"
CC(=O)Oc1ccccc1C(=O)OCCN=C1NS(=O)(=O)c2ccccc21,inactive: -0.702%,
O=C(OCc1nnn(Cc2ccccc2)c1-c1c(COC(=O)c2ccccc2)nnn1Cc1ccccc1)c1ccccc1,,"inconclusive: 16.4 µM [inhibitor, single point]"
COc1ccc(-c2cc(C(=O)NCCCN3CCOCC3)c3cc(C(C)C)ccc3n2)cc1,,"inconclusive: 29.1 µM [inhibitor, single point]"
COc1ccc(-n2c(SCC(=O)Nc3ncc(Cl)cc3Cl)nc3ccccc32)cc1,,"inconclusive: 6.51 µM [activator, single point]"
CCn1nnnc1SCC(=O)Nc1nc2ccccc2s1,,"inconclusive: 29.1 µM [activator, single point]"

Structure (SMILES),"activity change, negative = inhibition",Potency
CCN(CC)C(=O)c1sc2nc(-c3cccs3)cc(-c3ccc(Cl)cc3)c2c1N,,"inconclusive: 18.4 µM [inhibitor, partial curve, poor fit]"
COc1ccc(C2C([N+](=O)[O-])=C(C)N(C)C(=O)N2C)cc1OC (stereo not drawn),,"inconclusive: 32.6 µM [activator, partial curve, poor fit]"
O=C(Cn1cc(C(F)(F)F)ccc1=O)N/N=C/c1ccc(Cl)cc1,inactive: -2.73%,
COc1ccc2ccccc2c1/C=N/NC(=O)c1ccccc1F,inactive: 5.56%,
COCCCn1c(C(=O)N2CCOCC2)cc2c(=O)n3ccccc3nc21,inactive: 0.394%,
CC(=O)c1ccc(S(=O)(=O)N2CCN(C(=O)CSC(=S)N3CCCC3)CC2)cc1,,"inconclusive: 29.1 µM [inhibitor, single point]"
CCN(CC(=O)Nc1cccc(S(=O)(=O)N2CCCCC2)c1)Cc1ccccc1,inactive: -1.55%,
Cn1nnnc1SCC(=O)Nc1nc2c(s1)CCCC2,,"inconclusive: 7.31 µM [activator, partial curve]"
Cc1noc(/C=C/c2ccco2)c1S(=O)(=O)N1CCC(C(=O)N2CCc3ccccc3C2)CC1,,"inconclusive: 5.8 µM [inhibitor, partial curve, poor fit]"
Cc1ccc(-c2cc(C(F)F)n3ncc(C(=O)N4CCc5ccccc5C4)c3n2)cc1,inactive: -11.7%,
CC(=O)Nc1sc(N/N=C\c2ccccc2Cl)nc1-c1cccs1,,"inconclusive: 2.91 µM [activator, full curve]"
CCCCC(=O)Nc1ccc(Cl)cn1,,"inconclusive: 20.6 µM [activator, single point]"
O=C(COC(=O)c1cc([N+](=O)[O-])ccc1N1CCOCC1)NCc1ccc(Cl)cc1Cl,,"inconclusive: 29.1 µM [inhibitor, single point]"
c1csc(COc2ccccc2CNC2CCCCC2)c1,inactive: -29.6%,
CC(C)[C@H](NC(=O)[C@@H]1CSC2c3ccccc3C(=O)N21)C(=O)NCc1ccncc1 (stereo partly drawn),,"inconclusive: 23.1 µM [activator, partial curve, poor fit]"
Cc1cccnc1CCNC(=O)c1ccc(OC2CCN(Cc3ccccn3)CC2)cc1,,"inconclusive: 8.2 µM [activator, partial curve]"
Cc1ccc(C(=O)Nc2ccnc(-c3ccncc3)n2)cc1,inactive: -10.2%,
COc1cc(C(=O)Nc2ccc(S(=O)(=O)Nc3cnc4ccccc4n3)cc2)cc(OC)c1OC,,"inconclusive: 18.3 µM [activator, single point]"
COc1cccc(CNC(=O)CCC2CCCN(Cc3cc4ccccc4o3)C2)c1 (stereo not drawn),,"inconclusive: 25.9 µM [inhibitor, single point]"
CCCNC(=O)c1oc2ccc3c(c2c1C)C=CC(C)(C)O3,,"inconclusive: 20.6 µM [activator, partial curve]"
CCN(CC)c1ccc(NC(=O)C2=CC=CN3CCS(=O)(=O)N=C23)cc1,,"inconclusive: 12.6 µM [activator, partial curve]"
CCCCNS(=O)(=O)c1ccc2nc(-c3cccnc3)cc(C(=O)NCCCOCC)c2c1,,"inconclusive: 23.1 µM [activator, partial curve]"
Cc1ccc(-c2nc(CNC(=O)c3ccco3)cs2)cc1,,"inconclusive: 13 µM [activator, partial curve]"

# 6 entries from above in another layout.
Structure (SMILES)	activity change, negative = inhibition	Potency
CCOC(=O)C(=O)NNc1cccc(C)c1C	inactive: 4.22%	
COc1cc(NC(=O)c2nccnc2C(=O)O)cc(OC)c1		inconclusive: 18.4 µM [activator, single point]
CCOC(=O)C(=CNNc1cccc(Cl)c1)C(=O)OCC	inactive: 0%	
CCO[C@H]1OC(C(=O)NCc2nc3ccccc3[nH]2)=C[C@@H](c2csc3ccccc23)[C@@H]1CCCO		inconclusive: 32.6 µM [inhibitor, single point]
CC(=O)N1Cc2ccccc2CC1C(=O)OCC(=O)c1c(N)n(C)c(=O)n(C)c1=O (stereo not drawn)		inconclusive: 6.51 µM [activator, single point]
CCCCNS(=O)(=O)c1ccc2nc(-c3cccnc3)cc(C(=O)NCCCOCC)c2c1		inconclusive: 23.1 µM [activator, partial curve]

# Next part

Structure (SMILES),"activity change, negative = inhibition",Potency
Cc1ccc(S(=O)(=O)N2CCN(C(=O)Cn3c(=O)cnc4ccccc43)CC2)c(C)c1,,"inconclusive: 10.3 µM [inhibitor, single point]"
CCN(CC)C(=O)CSc1nnc(COc2ccccc2)n1CC,,"inconclusive: 0.0116 µM [activator, full curve, poor fit]"
CCc1cc2c(NCC3CCCO3)ncnc2s1 (stereo not drawn),,"inconclusive: 29.1 µM [inhibitor, single point]"
C/C(=N\NC(=O)c1ccccc1F)c1cccc(NC(=O)c2ccccc2)c1,,"inconclusive: 14.6 µM [activator, partial curve]"
Cc1ccc2nc(=O)c(NNc3ccccc3)cnc2c1,,"inconclusive: 7.31 µM [activator, partial curve]"
C/C(=N\NC(=O)c1ccc(Cn2cc(Br)cn2)o1)c1ccc(NC(=O)c2ccoc2C)cc1,,"inconclusive: 6.51 µM [inhibitor, partial curve]"
Nc1nnc(-c2ccc(F)cc2)s1,,"inconclusive: 18.4 µM [activator, single point]"
O=c1[nH]c(C2CCN(S(=O)(=O)Cc3ccccc3)CC2)nc2c1nnn2Cc1ccccc1,,active: 23.1 µM
CCC(C)n1cnc2c(c1=O)c1nc3ccccc3nc1n2Cc1ccc2c(c1)OCO2 (stereo not drawn),,"inconclusive: 18.4 µM [inhibitor, partial curve, poor fit]"
CC(C)Oc1ccc(-c2nc(NCC3CCCO3)c3ccccc3n2)cc1 (stereo not drawn),,"inconclusive: 29.1 µM [inhibitor, single point]"
O=C(O)c1cccc(Nc2ccnc(Nc3cccc(C(=O)O)c3)n2)c1,inactive: 22.5%,
COc1ccc(OCc2nnc(SCC(=O)NC3CC4CCC3C4)o2)cc1 (stereo not drawn),,"inconclusive: 18.3 µM [activator, partial curve, poor fit]"
C/C(Cl)=C/CSc1nnc2n(N)c(=O)c3ccccc3n12,,"inconclusive: 15.8 µM [activator, single point]"
Cc1ccccc1S(=O)(=O)Cc1ccc(C(=O)N2CC(C)CC(C)C2)o1 (stereo not drawn),,"inconclusive: 23.1 µM [inhibitor, single point]"
O=C(O)CCc1ncc(C(F)(F)F)cc1Cl,inactive: 4.97%,
O=C1C(=O)N(c2cccc(Cl)c2)C(c2ccccc2[N+](=O)[O-])/C1=C(\O)c1ccccc1 (stereo not drawn),,"inconclusive: 29.1 µM [activator, partial curve, poor fit]"
CN(C)C(=O)N=NC(=O)N(C)C,,"inconclusive: 35.5 µM [activator, single point]"
COc1ccc(CC(=O)Nc2nc(-c3ccc(F)c(F)c3)cs2)cc1,,active: 20.6 µM
Cc1csc(NC(=O)C(C)Oc2ccc(Br)cc2)n1 (stereo not drawn),inactive: -12.9%,
COC(=O)c1ccc(C(=O)OCc2nc3cc4ccccc4cc3[nH]2)cc1,,"inconclusive: 16.4 µM [activator, single point]"
COc1ccccc1NC(=O)Nc1ccc2c(c1)OCCO2,,"inconclusive: 23.1 µM [activator, single point]"
COc1ccc(-c2nc3ccccn3c2/N=C/c2ccc(OC)c(OC)c2)cc1O,,"inconclusive: 16.4 µM [activator, partial curve, poor fit]"

# — PubChem BioAssay AID504467 (National Center for Advancing Translational Sciences (NCATS), 2011)
